Data source: PubChem BioAssay AID743121 (NCATS, 2013)
Purpose: 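Partners whose loss is lethal together with topoisomerase I blockade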 (primary screen). Cells: MDA-MB-231 cells, a human breast cancer line. Reagents: single siRNA against human genes, 20 nM siRNA (0.8 pmol per well). Time to read-out: 120 h (drug added 48 h after transfection, read 72 h later). Conditions: camptothecin 20 nM (about EC30) for 72 h; vehicle 0.1% DMSO in parallel plates. Measured: 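CellTiter-Glo ATP signal, scaled to control siRNA as percent viability; sensitisation given as log2 of untreated divided by camptothecin-treated viability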. Scale: log2 vehicle/camptothecin viability: higher = stronger sensitisation to camptothecin; viability with camptothecin and viability without drug: higher = more viable cells. Hit rule: 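Each gene scored by redundant siRNA activity (RSA) over its individual siRNA ratios; a gene is called active at p < 0.001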.
In all, the deposit lists about 26,000 reagents; below is a random part of them. In the full data, 167 (0.63%) got an active call. 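Calls are per gene from RSA p-values that are not deposited; an individual active-marked siRNA can sensitise only weakly.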 The numbers tell different reagents against one gene apart.

Target gene | reagent no. | log2 vehicle/camptothecin viability | viability with camptothecin (% of control) | viability without drug (% of control) | call
CAPN12 (GeneID 147968) | 1 | -0.334 | 70.5 | 55.9 | inactive
CAPN12 (GeneID 147968) | 2 | -0.615 | 137 | 89.2 | inactive
CAPN12 (GeneID 147968) | 3 | 0.198 | 50.6 | 58.1 | inactive
CAPN12 (GeneID 147968) | 4 | -0.275 | 39.3 | 32.5 | inactive
DNER (GeneID 92737) | 1 | -0.399 | 91.1 | 69.1 | inactive
DNER (GeneID 92737) | 2 | -0.0457 | 77.7 | 75.3 | inactive
DNER (GeneID 92737) | 3 | 0.0847 | 90.3 | 95.7 | inactive
DNER (GeneID 92737) | 4 | -0.0156 | 56.6 | 56 | inactive
GAST (GeneID 2520) | 1 | -0.0842 | 74.7 | 70.4 | inactive
GAST (GeneID 2520) | 2 | 0.13 | 64.9 | 71 | inactive
GAST (GeneID 2520) | 3 | 0.365 | 58.1 | 74.8 | inactive
GAST (GeneID 2520) | 4 | -0.38 | 2.34 | 1.8 | inactive
PAQR3 (GeneID 152559) | 1 | -0.286 | 102 | 83.8 | inactive
PAQR3 (GeneID 152559) | 2 | -0.125 | 70.1 | 64.3 | inactive
PAQR3 (GeneID 152559) | 3 | -0.0215 | 108 | 107 | inactive
PAQR3 (GeneID 152559) | 4 | -0.304 | 42.8 | 34.7 | inactive
PZP (GeneID 5858) | 1 | -0.381 | 26.7 | 20.5 | inactive
PZP (GeneID 5858) | 2 | 0.0269 | 73.5 | 74.9 | inactive
PZP (GeneID 5858) | 3 | -0.106 | 98.6 | 91.6 | inactive
NLK (GeneID 51701) | 1 | -0.0915 | 79.6 | 74.7 | inactive
NLK (GeneID 51701) | 2 | -0.262 | 60.5 | 50.5 | inactive
NLK (GeneID 51701) | 3 | -0.0242 | 72.1 | 70.9 | inactive
NLK (GeneID 51701) | 4 | 0.136 | 24.3 | 26.7 | inactive
CATSPER1 (GeneID 117144) | 1 | -0.149 | 48.2 | 43.5 | inactive
CATSPER1 (GeneID 117144) | 2 | 0.225 | 18.8 | 21.9 | inactive
CATSPER1 (GeneID 117144) | 3 | -0.161 | 72.3 | 64.7 | inactive
CATSPER1 (GeneID 117144) | 4 | -0.86 | 49 | 27 | inactive
SND1 (GeneID 27044) | 1 | 0.298 | 52.6 | 64.7 | inactive
SND1 (GeneID 27044) | 2 | 0.229 | 77.9 | 91.3 | inactive
SND1 (GeneID 27044) | 3 | -0.157 | 72.5 | 65 | inactive
SND1 (GeneID 27044) | 4 | -0.443 | 60.4 | 44.4 | inactive
PTPRK (GeneID 5796) | 1 | 0.0634 | 101 | 105 | inactive
PTPRK (GeneID 5796) | 2 | -0.673 | 59.4 | 37.3 | inactive
PTPRK (GeneID 5796) | 3 | -0.132 | 117 | 107 | inactive
PTPRK (GeneID 5796) | 4 | -0.38 | 87.6 | 67.3 | inactive
NDUFV1 (GeneID 4723) | 1 | -0.321 | 65.1 | 52.1 | inactive
NDUFV1 (GeneID 4723) | 2 | -0.314 | 82.8 | 66.6 | inactive
NDUFV1 (GeneID 4723) | 3 | -0.164 | 92 | 82.1 | inactive
NDUFV1 (GeneID 4723) | 4 | -0.238 | 55.6 | 47.2 | inactive
CYP2B7P (GeneID 1556) | 1 | -0.631 | 107 | 68.8 | inactive
CYP2B7P (GeneID 1556) | 2 | -0.119 | 87.5 | 80.6 | inactive
CYP2B7P (GeneID 1556) | 3 | -0.296 | 84.1 | 68.5 | inactive
CYP2B7P (GeneID 1556) | 4 | -0.0519 | 105 | 101 | inactive
RAB34 (GeneID 83871) | 1 | -0.263 | 62.7 | 52.3 | inactive
RAB34 (GeneID 83871) | 2 | -0.135 | 49.8 | 45.4 | inactive
RAB34 (GeneID 83871) | 3 | -0.136 | 104 | 94.7 | inactive
RAB34 (GeneID 83871) | 4 | 0.465 | 53 | 73.2 | inactive

Records listed so far whose target name begins with D or d (4):
Target gene | reagent no. | log2 vehicle/camptothecin viability | viability with camptothecin (% of control) | viability without drug (% of control) | call
DNER (GeneID 92737) | 1 | -0.399 | 91.1 | 69.1 | inactive
DNER (GeneID 92737) | 2 | -0.0457 | 77.7 | 75.3 | inactive
DNER (GeneID 92737) | 3 | 0.0847 | 90.3 | 95.7 | inactive
DNER (GeneID 92737) | 4 | -0.0156 | 56.6 | 56 | inactive
